No constants are given. Whether binding was seen depends on the method and setting. In cells and extracts the contact can be indirect. For part of these data: Binding calls can cover weak binding; strength is not graded here. Sequences can lack the tags named with a protein.

This note sets out measurements from publication PMC3326058.

Common to all, as to assay: pull-down; GST fusion proteins bound to glutathione agarose beads, incubated with HEK293T cell extract containing Flag-JMJD2D in 20 mM HEPES, 50 mM NaCl, 1 mM DTT, 0.01% Tween-20 for 3 h at 4°C; three washes; anti-Flag (M2) Western blot; only the target purified
For experiment [1], the target named is GST-p53 central DNA binding domain (human).
For experiment [2], the target named is GST-p53 C-terminus (human).
Experiment [3] deals with GST-p53 N-terminus (human).

B1: Flag-tagged JMJD2D (enzyme, UniProt Q6B0I6 1-523)
chain: METMKSKANCAQNPNCNIMIFHPTKEEFNDFDKYIAYMESQGAHRAGLAKIIPPKEWKARETYDNISEILIATPLQQVASGRAGVFTQYHKKKKAMTVGEYRHLANSKKYQTPPHQNFEDLERKYWKNRIYNSPIYGADISGSLFDENTKQWNLGHLGTIQDLLEKECGVVIEGVNTPYLYFGMWKTTFAWHTEDMDLYSINYLHLGEPKTWYVVPPEHGQRLERLARELFPGSSRGCGAFLRHKVALISPTVLKENGIPFNRITQEAGEFMVTFPYGYHAGFNHGFNCAEAINFATPRWIDYGKMASQCSCGEARVTFSMDAFVRILQPERYDLWKRGQDRAVVDHMEPRVPASQELSTQKEVQLPRRAALGLRQLPSHWARHSPWPMAARSGTRCHTLVCSSLPRRSAVSGTATQPRAAAVHSSKKPSSTPSSTPGPSAQIIHPSNGRRGRGRPPQKLRAQELTLQTPAKRPLLAGTTCTASGPEPEPLPEDGALMDKPVPLSPGLQHPVKASGCSWAPVP
Take B1: the values for the binding entry in experiment [1], in experiment [2] and in experiment [3] were “binds”, “no binding” and “no binding”, respectively.
